# Experimental data published in PubChem BioAssay AID651640 (Broad Institute, 2012).
# Screen size: about 350,000 compounds; about 6,000 (1.7%) were called active. The inconclusive results got no clear call from the source; some entries with a clear call stand among them for comparison. No stated cut-off is given here; in the data, active means CPE inhibition above about 20% (passing the limit was not always enough); inconclusive means no clear call, values can overlap the other calls; tested in BHK-21 cells.
# Test: protection of cells from dengue 2 killing – plate reader, single concentration, primary screen (AID 651640);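 further: 0% = median of neutral control wells and 100% = median of positive control wells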
# Conditions: DENV2-infected cells, cytopathic effect rescue, at 9.99 µM, stronger effect = higher value
row,Compound,CPE inhibition
1,COc1cc(/C=N/Nc2ccc(C(=O)O)cc2)ccc1O,inactive: 12.2%
2,CC1(C(=O)Nc2cccc3ncccc23)CCN1C(=O)Cc1ccc(-c2ccccc2)cc1 (stereo unspecified),inconclusive: 45.1%
3,CCN1C(=O)[C@@H]2[C@@H]3CN(S(=O)(=O)c4ccc(C)cc4)[C@@H](c4ccccc4F)[C@@H]3C(=O)C[C@@H]2C1=O,active: 20.8%
4,COCCNC(=O)C[C@H]1CC[C@@H]2[C@H](COC[C@@H](O)CN2Cc2cccc(-c3ccncc3)c2)O1,inactive: -1.92%
5,C[C@H](CO)N1C[C@H](C)[C@@H](CN(C)Cc2ccc(Oc3ccccc3)cc2)Oc2ccc(NC(=O)Nc3ccc(C(F)(F)F)cc3)cc2CC1=O,inactive: -3.57%
6,C[C@@H]1CN([C@@H](C)CO)C(=O)c2cc(NS(=O)(=O)c3ccccc3)ccc2O[C@@H](C)CCCCO[C@@H]1CN(C)CC1CCCCC1,active: 54.7%
7,C/C(=N\OCC(=O)Nc1ccc(OC(F)(F)F)cc1)c1ccc2c(c1)OCCO2,active: 108%
8,C[C@H]1CN([C@@H](C)CO)C(=O)c2cc(/C=C/c3ccccc3)cnc2O[C@@H]1CN(C)C(=O)Nc1ccc(C(F)(F)F)cc1,inconclusive: 25.5%
9,COc1cc(CN2CC3(CCN(C(=O)Nc4cccc(F)c4)CC3)c3c(n(C)c4cc(OC)ccc34)[C@@H]2CO)cc(OC)c1,inactive: 12.9%
10,COC(=O)[C@@]12C[C@@H](CC(=O)NCc3ccc(C)o3)C(=O)N(Cc3cccc4ccccc34)C1=CCC(C)(C)C2,inconclusive: 41.8%
11,Cn1c(NC(=O)C2CCCC2)cc(=O)n(C)c1=O,inconclusive: 21.8%
12,C#CCOCCOCCOCCNc1nc(N2CCOCC2)nc(N2CCN(C(=O)[C@H](CCCCN)n3cc([C@@H](N)C(C)CC)nn3)CC2)n1 (stereo partly specified),inconclusive: 66.9%
13,O=C(C[C@H]1C/C=C\C[C@@H](Cc2ccc(F)cc2)C(=O)OC[C@H]2CCCN2C1=O)N[C@@H](CO)Cc1ccccc1,inconclusive: 55.2%
14,CCN(CC)C(=O)Cn1cc(S(=O)(=O)CC(=O)Nc2ccc(F)cc2)c2ccccc21,inconclusive: 21.5%
15,Cn1cc(C(=O)N2CCCCCC2)c(=O)c2cc(S(=O)(=O)N3CCCCC3)ccc21,inconclusive: 31.1%
16,C[C@@H]1CCCCO[C@@H](CN(C)Cc2ccc(C(=O)O)cc2)[C@H](C)CN([C@@H](C)CO)C(=O)c2cc(NS(=O)(=O)c3ccccc3)ccc2O1,inconclusive: 60.7%
17,Cc1ccccc1CO/N=C/c1[nH]ncc1Br,inconclusive: 22.4%
18,C[C@@H]1CN([C@H](C)CO)C(=O)Cc2cc(NC(=O)CCC(F)(F)F)ccc2O[C@@H]1CN(C)S(=O)(=O)c1ccccc1,inconclusive: 27.8%
19,Cc1ccc(F)cc1-c1nc(NCC2CC2)nc2ccsc12,inconclusive: 62.7%
20,O=C(CC1C[C@H](C(=O)N2CCCCC2)[C@@]2(CCc3ccccc3)c3[nH]c4ccccc4c3CCN2C1=O)NCCc1ccccn1 (stereo partly specified),inconclusive: 45.4%
21,CC(C)CC#Cc1cnc2c(c1)C(=O)N([C@H](C)CO)C[C@H](C)[C@@H](CN(C)C(=O)Nc1ccccc1F)O2,inconclusive: 47.4%
22,CC(=O)Nc1ccc(S(=O)(=O)Nc2ccc(S(=O)(=O)N3CCCC3)cc2)cc1,inconclusive: 25%
23,O=C1NCC(O)=C1C=NC12CC3CC(CC(C3)C1)C2,inconclusive: 22.1%
24,C#CCOCCOCCOCCNc1nc(N2CCN(C(=O)Cn3cc(CCO)nn3)CC2)nc(N2CCN(C(=O)[C@H]([C@@H](C)O)n3cc(CCCCN)nn3)CC2)n1,active: 21%

row,Compound,CPE inhibition
1,Cc1cc(/C=C(\C#N)C(=O)OCC(=O)N(C)c2c(N)n(Cc3ccccc3)c(=O)[nH]c2=O)c(C)n1CC(C)C,inconclusive: 38.1%
2,O=C(NCc1ccco1)c1cc(-c2ccccc2)nn1CC1CC(c2cccc([N+](=O)[O-])c2)=NO1 (stereo unspecified),inconclusive: 23.8%
3,Cc1sc(NC(=O)Cn2cnnn2)nc1-c1ccc(Cl)cc1,inactive: -0.218%
4,CC(=O)Nc1ccc(N2CCN(c3ccc(C(F)(F)F)cn3)CC2)nc1,inconclusive: 32.8%
5,COc1ccc(Oc2nc(OC)cc(OC)n2)cc1,inconclusive: 20.6%
6,Cc1ccc(OCC(=O)N2C(C)CCCC2C)c([N+](=O)[O-])n1 (stereo unspecified),inconclusive: 21.1%
7,COc1ccnc(Oc2ccccc2)c1C(=O)N/C=N/OCc1ccccc1,inconclusive: 26.4%
8,C[C@@H]1CN([C@H](C)CO)C(=O)Cc2cc(NC(=O)CCN3CCOCC3)ccc2O[C@@H]1CN(C)C(=O)Nc1ccc(C(F)(F)F)cc1,inconclusive: 36.9%
9,COc1ccc(NC(=O)c2cc([N+](=O)[O-])ccc2N2CCCCC2)cc1OC,inconclusive: 48.4%
10,C[C@H]1CN([C@@H](C)CO)C(=O)Cc2cc(N(C)C)ccc2O[C@@H]1CN(C)S(=O)(=O)c1cccs1,inconclusive: 22.9%
11,O=C(CS(=O)(=O)c1ccccc1)N1CCCCC1,inconclusive: 36.6%
12,c1ccc(-c2csc(-n3cccn3)n2)cc1,inactive: 12.7%
13,O=C(Nc1cccc(S(=O)(=O)N2CCCCC2)c1)[C@@H]1CCCN1S(=O)(=O)c1ccccc1C(F)(F)F,inconclusive: 29.9%
14,Cn1c(=O)c2c(-c3ccccc3)n(-c3ccccc3O)cc2n(C)c1=O,inactive: 9.88%
15,COc1ccc(NC(=O)COC(=O)C2CCN(S(=O)(=O)c3ccccc3)CC2)cc1Cl,inconclusive: 20%
16,COC(=O)[C@@H]1[C@@H](CO)[C@@H]2Cn3c(cccc3=O)[C@@H]2N1C(=O)C1CC1,inconclusive: 20%
17,CC(=O)N1CC(=O)N2[C@H](CO)[C@@H](c3ccc(C#Cc4cccnc4)cc3)[C@@H]2C1,active: 26.5%
18,COc1ccc(Nc2cc(C)c3cc([N+](=O)[O-])ccc3n2)cc1,active: 28.4%
19,CC(C)OCCCNC(=O)c1ccc2c(=O)n(Cc3ccc4c(c3)OCO4)c(=S)[nH]c2c1,inconclusive: 45.1%
20,CO[C@H]1CN(C)C(=O)c2ccc(NC(C)=O)cc2OC[C@@H](C)N(C(=O)Cc2cccnc2)C[C@@H]1C,inactive: -8.23%
21,CN(C(=O)CC1C(=O)NCCN1Cc1ccccc1C(F)(F)F)C1CCOCC1 (stereo unspecified),inactive: 6.62%
22,CC(C)N(C(=O)[C@H]1CC(CC(=O)NCCc2ccccn2)C(=O)N2CCc3c([nH]c4ccccc34)[C@]12C)C(C)C (stereo partly specified),inconclusive: 36.5%
23,Cc1cc(C)c(C#N)c(SCc2cc3c(cc2Cl)OCO3)n1,inconclusive: 25.3%
24,CC=Cc1ccc2n(c1=O)C[C@H]1[C@H](CO)[C@@H](C(=O)NC3Cc4ccccc4C3)N(CC3CC3)[C@@H]21 (mixture of isomers),inconclusive: 39.7%

row,Compound,CPE inhibition
1,CO[C@@H]1CN(C)C(=O)c2ccc(NC(=O)C3CC3)cc2OC[C@@H](C)N(Cc2ccc(F)cc2)C[C@H]1C,inconclusive: 26.3%
2,CC(=O)NCCNC(=O)C1(C)Cc2c(-c3ccc(C(N)=O)cc3)ccnc2O1 (stereo unspecified),inconclusive: 21.9%
3,Cc1ccc(S(=O)(=O)Nc2ccc3ccccc3c2)cc1,inactive: 10.2%
4,CCNc1nc(N)c(C(=O)C23CC4CC(CC(C4)C2)C3)s1,active: 53.3%
5,CCCNC(=O)Nc1ccc2c(c1)OC[C@H](C)N(Cc1ccccn1)C[C@H](C)[C@H](OC)CN(C)C2=O,inactive: -3.27%
6,C=CCN1C(=S)CC(c2ccccc2)=Nc2ccccc21,inconclusive: 37.2%
7,CN(C)c1ccc(-c2cccc3nccn23)cc1,inconclusive: 63.1%
8,Cc1ccc(Nc2nnc(SCC(=O)NC3CC3)s2)cc1,inconclusive: 34.7%
9,COC(=O)[C@H]1[C@H](CO)[C@H]2Cn3c(ccc(C4=CCCC4)c3=O)[C@H]2N1CC1CCOCC1,active: 70.8%
10,COc1ccc(CN(C)C[C@H]2OCCCC[C@@H](C)Oc3ccc(NC(=O)NC4CCCCC4)cc3C(=O)N([C@@H](C)CO)C[C@H]2C)cc1,inactive: 8.12%
11,CN(C)CCCNC(=O)C[C@@H]1CC[C@H]2[C@@H](COC[C@@H](O)CN2Cc2ccc(Cl)c(Cl)c2)O1,inactive: -1.3%
12,CN1OC[C@@H]2CN(C(=O)c3ccc(-c4ccccc4)cc3)[C@H](c3ccc(-c4cccc(F)c4)cc3)C[C@@H]21,inactive: -4.1%
13,COc1ccc2cc3c(N)nn(C(=O)Cc4ccc(Cl)cc4)c3nc2c1,inconclusive: 26.1%
14,O=c1[nH]c(CCl)nc2cc(-c3ccc(F)cc3)sc12,inconclusive: 24.7%
15,Cc1ccccc1C(=O)O,inactive: 0.715%
16,O=C1NCCN(Cc2ccc(Cl)c(F)c2)C1CC(=O)N1CCCO1 (stereo unspecified),inactive: 17%
17,O=C(NCC1CC1)[C@@H]1[C@@H](CO)[C@@H]2Cn3c(ccc(/C=C/c4ccccc4)c3=O)[C@H]1N2C(=O)C1CCC1,inactive: 10.7%
18,CC1=C(C(=O)OCc2ccccc2)C(c2ccc(Br)cc2)NC(=O)N1CCCC(=O)O (stereo unspecified),inconclusive: 20.8%
19,N#Cc1ccc(-c2ccc3c(c2)[C@@H]2[C@@H](CCN2Cc2ccc4c(c2)OCO4)[C@@H](CO)N3)cc1,inconclusive: 26.4%
20,COCC(=O)Nc1ccc2c(c1)C(=O)N(C)C[C@@H](OC)[C@@H](C)CN(CC1CCCCC1)[C@H](C)CO2,inactive: -6.3%
21,C[C@H]1CN([C@@H](C)CO)S(=O)(=O)c2ccc(Br)cc2O[C@H]1CN(C)Cc1ccccc1,inconclusive: 22.7%
22,N#C[C@H]1[C@H](c2ccc(-c3ccccc3)cc2)[C@H](CO)N1C(=O)Cc1ccccc1,inconclusive: 24.1%
23,O=C(NCCCN1CCCC1=O)c1cc(COc2ccc(F)cc2F)on1,inconclusive: 23.9%

# As a working copy, some entries already given.
row,Compound,CPE inhibition
1,CO[C@@H]1CN(C)C(=O)c2ccc(NC(=O)C3CC3)cc2OC[C@@H](C)N(Cc2ccc(F)cc2)C[C@H]1C,inconclusive: 26.3%
2,CC(=O)NCCNC(=O)C1(C)Cc2c(-c3ccc(C(N)=O)cc3)ccnc2O1 (stereo unspecified),inconclusive: 21.9%
3,Cc1ccc(S(=O)(=O)Nc2ccc3ccccc3c2)cc1,inactive: 10.2%
4,CCNc1nc(N)c(C(=O)C23CC4CC(CC(C4)C2)C3)s1,active: 53.3%
